Results: patent US20250236667A1, “ANTIBODIES TO MUTANT CALRETICULIN AND USES THEREOF” (CENTRAL ADELAIDE LOCAL HEALTH NETWORK INC, priority 2021, published 2025)
No constants are given. Whether binding was seen depends on the method and setting. Some entries that bind do so weakly or less than the wild type.

Key:
[1] = biological target: human CALR del61 frameshift mutant calreticulin (61 base pair deletion in CALR exon 9) (human) (UniProt P27797); test: flow cytometry on TF-1 TpoR CALR^del61 cells
[2] = biological target: human CALR del61 frameshift mutant calreticulin (61 base pair deletion in CALR exon 9) (human) (UniProt P27797); test: Western blot of cell extracts
[3] = biological target: human CALR del61 frameshift mutant calreticulin (61 base pair deletion in CALR exon 9) (human) (UniProt P27797); test: Western blot of TF-1 cell extracts (hybridoma clone screen)
[4] = biological target: human CALR del61 frameshift mutant calreticulin (61 base pair deletion in CALR exon 9) (human) (UniProt P27797); test: hybridoma screen (Western blot, FIG. 6A)
[5] = biological target: human CALR del61 frameshift mutant calreticulin (61 base pair deletion in CALR exon 9) (human) (UniProt P27797); test: flow cytometry, PE-conjugated 4D7 at 4 µg/mL on TF-1 TpoR CALRdel61 cells
[6] = biological target: human CALR del61 frameshift mutant calreticulin (61 base pair deletion in CALR exon 9) (human) (UniProt P27797); test: flow cytometry, PE-conjugated 4D7 on TF-1 TpoR CALRdel61 cells

Measured: binding

B1: 4D7 rat monoclonal IgG2a anti-mutant calreticulin antibody (antibody, V domains shown)
VH: QVQLQQSGAELAKPGSSVKISCKASGYTFTNYDMSWIKQRPGQALEWIGAINPGNGVTDYNEKFRGKATLTVDKSSSTAFMQLSSLTPEDTAVYHCAREYRDNYGYFDYWGQGVMVTVSS
VL: DIVLTQTPVSLSVTLGDQASISCRSSQSLEYSDGYTYLDWFLQKPGQSPQLLIYEVSSRFSGVPDRFIGRGSGTDFTLKISRVEPEDLGVYYCFQATHDPFTFGSGTKLEIK
notes: also called clone 4D7; clone 4D7 mAb
binds: all assays above
